Data on five molecules can be found in paper doi:10.1101/2020.03.20.999888 (bioRxiv, 2020).

No constants are given. Whether binding was seen depends on the method and setting. For some assays here: In cells and extracts the contact can be indirect. Some binding calls cover weakened binding; strength is not graded here. For some assays here: Where a sequence is shown, tags or fusion partners need not be part of it.

Experiment [1] has as its target GspM^peri (P. aeruginosa) (UniProt P25061). The experiment is described as follows: SEC-MALS. (In general: Size exclusion chromatography separates by hydrodynamic size, large species first.)
The target in experiment [2] is GspL^cyto (P. aeruginosa) (UniProt P25060). The experiment can be described thus: SEC-MALS.
Experiment [3] addresses T1, GspL^cyto, biotinylated (C-terminal AVI-tag) (P. aeruginosa) (UniProt P25060).
T1 sequence (chain, biotin (in vivo biotinylated by co-expressed E. coli BirA)): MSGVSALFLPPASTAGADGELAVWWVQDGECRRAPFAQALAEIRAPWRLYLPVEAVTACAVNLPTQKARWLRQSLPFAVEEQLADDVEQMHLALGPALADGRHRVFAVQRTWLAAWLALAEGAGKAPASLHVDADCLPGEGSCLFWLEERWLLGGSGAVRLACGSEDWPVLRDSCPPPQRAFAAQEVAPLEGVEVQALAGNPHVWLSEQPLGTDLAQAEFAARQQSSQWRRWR
The experiment is described as follows: BLI. In general terms: BLI is a label-free optical method that tracks binding on a fibre tip over time.

The target of experiment [4] is T2, GspM (P. aeruginosa) (UniProt P25061).
T2 sequence: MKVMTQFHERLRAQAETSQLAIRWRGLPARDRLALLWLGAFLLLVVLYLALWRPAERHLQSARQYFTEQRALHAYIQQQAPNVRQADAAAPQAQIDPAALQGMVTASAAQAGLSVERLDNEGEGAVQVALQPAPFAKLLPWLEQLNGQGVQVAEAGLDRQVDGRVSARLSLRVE
The experiment can be described thus: pull-down + SEC.

In experiment [5] the target is T3, GspE, biotinylated (C-terminal AVI-tag) (P. aeruginosa) (UniProt Q00512).
T3 sequence (chain, biotin (in vivo biotinylated by co-expressed E. coli BirA)): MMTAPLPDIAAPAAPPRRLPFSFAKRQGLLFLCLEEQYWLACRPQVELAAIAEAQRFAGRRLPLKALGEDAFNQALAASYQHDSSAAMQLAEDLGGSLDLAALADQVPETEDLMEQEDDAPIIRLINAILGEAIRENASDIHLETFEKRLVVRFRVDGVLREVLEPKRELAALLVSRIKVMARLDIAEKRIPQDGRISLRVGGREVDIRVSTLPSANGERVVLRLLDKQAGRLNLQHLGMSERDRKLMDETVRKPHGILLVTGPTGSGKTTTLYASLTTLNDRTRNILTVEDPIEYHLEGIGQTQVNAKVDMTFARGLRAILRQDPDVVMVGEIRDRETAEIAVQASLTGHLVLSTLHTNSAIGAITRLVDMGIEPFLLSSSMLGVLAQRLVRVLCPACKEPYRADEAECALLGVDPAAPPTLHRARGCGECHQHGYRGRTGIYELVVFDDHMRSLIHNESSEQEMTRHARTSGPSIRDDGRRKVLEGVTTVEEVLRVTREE
The experiment is described as follows: BLI.

With “GspM^peri (from UniProt P25061 53-174) (domain or fragment)”, the binding result in experiment [1] is on record as “no binding (tested: 0.5-1.5 mg/ml)”.

B1: GspL^cyto (domain or fragment, UniProt P25060 1-233)
chain: MSGVSALFLPPASTAGADGELAVWWVQDGECRRAPFAQALAEIRAPWRLYLPVEAVTACAVNLPTQKARWLRQSLPFAVEEQLADDVEQMHLALGPALADGRHRVFAVQRTWLAAWLALAEGAGKAPASLHVDADCLPGEGSCLFWLEERWLLGGSGAVRLACGSEDWPVLRDSCPPPQRAFAAQEVAPLEGVEVQALAGNPHVWLSEQPLGTDLAQAEFAARQQSSQWRRWR
In the case of B1, in experiment [2], the binding entry was “no binding (tested: 0.5-1.5 mg/ml)”.

B2: recombinant GspE (enzyme, UniProt Q00512 1-502)
chain: MMTAPLPDIAAPAAPPRRLPFSFAKRQGLLFLCLEEQYWLACRPQVELAAIAEAQRFAGRRLPLKALGEDAFNQALAASYQHDSSAAMQLAEDLGGSLDLAALADQVPETEDLMEQEDDAPIIRLINAILGEAIRENASDIHLETFEKRLVVRFRVDGVLREVLEPKRELAALLVSRIKVMARLDIAEKRIPQDGRISLRVGGREVDIRVSTLPSANGERVVLRLLDKQAGRLNLQHLGMSERDRKLMDETVRKPHGILLVTGPTGSGKTTTLYASLTTLNDRTRNILTVEDPIEYHLEGIGQTQVNAKVDMTFARGLRAILRQDPDVVMVGEIRDRETAEIAVQASLTGHLVLSTLHTNSAIGAITRLVDMGIEPFLLSSSMLGVLAQRLVRVLCPACKEPYRADEAECALLGVDPAAPPTLHRARGCGECHQHGYRGRTGIYELVVFDDHMRSLIHNESSEQEMTRHARTSGPSIRDDGRRKVLEGVTTVEEVLRVTREE
On to B2, for which, in experiment [3], the binding entry is given as “binds”.

B3: GspL (natural protein)
chain: MSGVSALFLPPASTAGADGELAVWWVQDGECRRAPFAQALAEIRAPWRLYLPVEAVTACAVNLPTQKARWLRQSLPFAVEEQLADDVEQMHLALGPALADGRHRVFAVQRTWLAAWLALAEGAGKAPASLHVDADCLPGEGSCLFWLEERWLLGGSGAVRLACGSEDWPVLRDSCPPPQRAFAAQEVAPLEGVEVQALAGNPHVWLSEQPLGTDLAQAEFAARQQSSQWRRWRPLLGLVGLWLVLQWGFTLVQAWQLQREGDRYAAQSAELYRQLFPEDRKLINLRAQFDQHLADSASSGGEGQLLGLLGQAATVIGGEPTVSVEQLDFSAARGDVALQVRAPGFDVLERLRSRLSESGLAVQLGSASRDGSTVSARLVIGG
On to B3, for which the binding entry in experiment [4] was “binds”.

B4: GspLM complex (complex, UniProt P25060;P25061)
chain 1: MSGVSALFLPPASTAGADGELAVWWVQDGECRRAPFAQALAEIRAPWRLYLPVEAVTACAVNLPTQKARWLRQSLPFAVEEQLADDVEQMHLALGPALADGRHRVFAVQRTWLAAWLALAEGAGKAPASLHVDADCLPGEGSCLFWLEERWLLGGSGAVRLACGSEDWPVLRDSCPPPQRAFAAQEVAPLEGVEVQALAGNPHVWLSEQPLGTDLAQAEFAARQQSSQWRRWRPLLGLVGLWLVLQWGFTLVQAWQLQREGDRYAAQSAELYRQLFPEDRKLINLRAQFDQHLADSASSGGEGQLLGLLGQAATVIGGEPTVSVEQLDFSAARGDVALQVRAPGFDVLERLRSRLSESGLAVQLGSASRDGSTVSARLVIGG
chain 2: MKVMTQFHERLRAQAETSQLAIRWRGLPARDRLALLWLGAFLLLVVLYLALWRPAERHLQSARQYFTEQRALHAYIQQQAPNVRQADAAAPQAQIDPAALQGMVTASAAQAGLSVERLDNEGEGAVQVALQPAPFAKLLPWLEQLNGQGVQVAEAGLDRQVDGRVSARLSLRVE
With B4, the binding result in experiment [5] was “binds”.
